Assay results taken from PubChem BioAssay AID2549 (National Center for Advancing Translational Sciences (NCATS), 2010).
The campaign covered roughly 240,000 compounds. About 1,300 (0.54%) were called active. This list was built around the results that the source calls inconclusive (neither active nor inactive); the mix of calls is not that of the screen. Calls come from the whole dose curve; as a rule, active = well fitted inhibition curve with a large enough effect; inconclusive = small, poorly fitted or top-dose-only effect; inactive = flat fitted curve, though single readings scatter. Potencies of inconclusive entries are doubtful fits and often do not repeat.
Note: nearly all actives have a fitted effect of over 30% in size.
Potency is the fitted concentration of half-maximal effect.

Protein sequences, listed by entry. Tags and fused reporters are not part of them. Lines headed by an entry give the natural chain unless they say otherwise; changes in a name come on top.
UniProt P46063: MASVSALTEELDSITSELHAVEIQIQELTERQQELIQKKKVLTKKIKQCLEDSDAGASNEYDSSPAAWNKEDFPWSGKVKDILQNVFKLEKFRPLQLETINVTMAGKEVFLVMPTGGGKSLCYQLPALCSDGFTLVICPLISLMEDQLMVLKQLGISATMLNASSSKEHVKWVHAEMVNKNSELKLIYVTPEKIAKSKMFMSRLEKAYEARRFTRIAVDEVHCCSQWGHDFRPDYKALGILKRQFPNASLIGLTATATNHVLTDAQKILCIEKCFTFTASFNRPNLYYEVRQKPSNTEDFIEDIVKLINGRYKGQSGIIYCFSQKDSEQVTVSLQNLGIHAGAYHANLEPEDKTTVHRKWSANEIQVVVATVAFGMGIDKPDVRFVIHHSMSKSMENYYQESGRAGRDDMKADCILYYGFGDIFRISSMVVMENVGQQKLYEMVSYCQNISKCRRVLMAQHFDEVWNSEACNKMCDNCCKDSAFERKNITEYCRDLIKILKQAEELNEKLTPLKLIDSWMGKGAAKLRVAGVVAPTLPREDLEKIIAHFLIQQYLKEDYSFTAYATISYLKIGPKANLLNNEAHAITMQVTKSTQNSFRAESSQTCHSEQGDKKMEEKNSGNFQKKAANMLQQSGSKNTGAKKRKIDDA

What follows are compounds tested against ATP-dependent DNA helicase Q1 (Homo sapiens) (UniProt P46063) (assay: qHTS Assay for Inhibitors of RecQ-Like Dna Helicase 1 (RECQ1)). Details: RECQ1 DNA unwinding, red fluorescence kinetic read; series mostly up to 57.3 µM.
How it was run: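 RECQ1T1 50 nM; forked duplex (20 bp + 30-nt ss tails) 200 nM, ATP 2 mM final; pH 8.0, 2 mM MgCl2, 2.5 ug/ml poly(dI-dC); 15 min compound preincubation; discontinuous kinetic read over 2 h at RT.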
With `CC(=O)Nc1ccc(/C(C)=N/Nc2nc(Nc3ccccc3)nc(N3CCOCC3)n2)cc1` the Potency was “inactive”.
With `Oc1ccc(N=Cc2sc3ccccc3c2Cl)cc1` the Potency was active: 8.91 µM.
For `COc1ccc2c(c1)c(=O)oc1cc(OCC(=O)N3CCC(C)CC3)ccc12`, the Potency was active: 39.8 µM.
With `CCn1c(SCC(=O)N/N=C/C=C\c2ccco2)nc2ccccc21` the Potency was inconclusive: 39.8 µM [inhibitor, single point].
`CN1C(=O)NC(c2ccc(O)cc2)C(C(=O)c2cccs2)C1(O)C(F)(F)F` (centres undefined) was tested, and the Potency was inconclusive: 15.8 µM [inhibitor, partial curve].
For `Cc1ccc(C)n1-c1cccc(C(=O)O)c1`, the Potency was inconclusive: 35.5 µM [inhibitor, single point].
For `OCC1OC(c2ccccc2)C=CC1Oc1ccc(C2CCCC2)cc1` (centres undefined), the outcome was “inactive [at 11.5 µM]”.
For `Cn1nc(-c2ccc(Cl)cc2)nc2c(=O)n(C)c(=O)nc1-2`, the Potency was active: 1.58 µM.
`NS(=O)(=O)c1ccc(NC(=O)COC(=O)c2c3c(nc4ccccc24)/C(=C\c2ccc4c(c2)OCO4)CCC3)cc1` was tested, and the Potency was inconclusive: 17.8 µM [inhibitor, single point].
With `CN(Cc1ccccc1)C(=O)[C@H](Cc1ccc2ccccc2c1)NC(=O)[C@@H]1C[C@@H](O)CN1C(=O)c1cn(C)c2ccccc12` the Potency was “inactive”.
With `Cc1cc(NC(=O)/C=C/c2ccco2)ccc1NC(=O)c1ccccc1` the Potency was “inactive”.
In the case of `CCOC(=O)c1c(/N=C/C2C(=O)CC(C)(C)CC2=O)sc2c1CCCC2`, the Potency is reported as inconclusive: 7.94 µM [inhibitor, partial curve].
In the case of `Cn1cccc1Cc1nnc(SCC(=O)N2CCN(c3ccccc3)CC2)n1-c1ccc(F)cc1`, the Potency is reported as inconclusive: 31.6 µM [inhibitor, single point].
In the case of `COc1cccc(NC(=S)C(C#N)=C2N(C)c3ccccc3N2C)c1`, the Potency is reported as inconclusive: 35.5 µM [inhibitor, single point].
In the case of `COc1ccc2sc(/C=C/c3ccccc3O)[n+](C)c2c1`, the Potency is reported as inconclusive: 39.8 µM [inhibitor, single point].
In the case of `c1ccc(N2N=C(c3cccs3)CC2c2ccco2)cc1` (centres undefined), the Potency is reported as inconclusive: 7.08 µM [inhibitor, full curve].
`Oc1c(C=Nc2ccccc2)sc(=S)n1Cc1ccccc1` was tested, and the Potency was inconclusive: 35.5 µM [inhibitor, single point].
`COc1cc(C2NCC(c3ccc(Cl)cc3Cl)c3c2[nH]c2ccccc32)cc(OC)c1OC` (centres undefined) was tested, and the Potency was inconclusive: 35.5 µM [inhibitor, single point].
`Cc1ccnc(NS(=O)(=O)c2ccc(NC(=O)c3cc(-c4ccc(Br)cc4)nc4ccccc34)cc2)n1` was tested, and the Potency was inconclusive: 39.8 µM [inhibitor, single point].
With `CCOC(=O)c1ccc(N2C(=O)c3n[nH]c(-c4ccco4)c3C2c2ccc([N+](=O)[O-])cc2)cc1` (centres undefined) the Potency was inconclusive: 22.4 µM [inhibitor, partial curve, poor fit].
In the case of `COc1ccccc1-c1ccc(/C=C2/C=C(CC(C)C)OC2=O)o1`, the Potency is reported as inconclusive: 39.8 µM [inhibitor, single point].
With `Cc1ccc(C(=O)Nc2ccc(S(=O)(=O)O)c3cc(S(=O)(=O)O)cc(S(=O)(=O)O)c23)cc1NC(=O)c1cccc(NC(=O)Nc2cccc(C(=O)Nc3cc(C(=O)Nc4ccc(S(=O)(=O)O)c5cc(S(=O)(=O)O)cc(S(=O)(=O)O)c45)ccc3C)c2)c1` the Potency was active: 20 µM.
`Cc1ccc2c(c1)c(=O)c1c3n2CCN(C(=O)CCl)C3CC1` (centres undefined) was tested, and the Potency was inconclusive: 39.8 µM [inhibitor, single point].
In the case of `CCc1ccc(NC(=O)COC(=O)c2ccc(Cl)c(S(=O)(=O)N3CCCCCC3)c2)cc1`, the Potency is reported as inconclusive: 22.4 µM [inhibitor, partial curve, poor fit].
In the case of `C=CCn1c(SCC(=O)c2ccc(O)c(O)c2)nnc1-c1ccccc1OC`, the Potency is reported as inconclusive: 17.8 µM [inhibitor, partial curve].
With `Fc1ccc(-n2c(Cc3ccccc3)nnc2SCc2nc(-c3ccc(Cl)cc3)no2)cc1` the Potency was inconclusive: 28.2 µM [inhibitor, single point].
With `COc1ccc(CCNC(=O)c2ccc3c(=O)n(Cc4ccco4)c(=S)[nH]c3c2)cc1OC` the Potency was inconclusive: 28.2 µM [inhibitor, single point].
`C=CCn1c(SC(CCO)C(=O)NCc2ccco2)nc2sc3c(c2c1=O)CCC3` (centres undefined) was tested, and the Potency was inconclusive: 6.31 µM [inhibitor, single point].
For `Cc1cc2cc(CCNC(=O)c3c(-c4ccccc4Cl)noc3C)c(=O)[nH]c2cc1C`, the Potency was inconclusive: 0.158 µM [inhibitor, full curve, poor fit].
In the case of `C/C=C\C1=C(CO)C(=O)[C@@H]2OC2C1=O` (some centres undefined), the Potency is reported as active: 3.55 µM.
With `CCCC(=O)NC(c1ccc(OC)c(OC)c1)c1cc(Cl)c2cccnc2c1O` (centres undefined) the Potency was “inactive”.
For `Cn1c(SCC(=O)N/N=C/C=C/c2ccco2)nc2ccccc21`, the Potency was active: 17.8 µM.
In the case of `O=c1cc(O)nc(SCc2ccccc2)n1-c1ccccc1`, the Potency is reported as inconclusive: 8.91 µM [inhibitor, partial curve].
In the case of `Cn1cc(C2=C(c3ccc(Cl)cc3Cl)C(=O)NC2=O)c2ccccc21`, the Potency is reported as inconclusive: 31.6 µM [inhibitor, single point].
In the case of `CCc1cc(=O)oc2cc(C)c(CN3CCCC3)c(O)c12`, the Potency is reported as active: 7.08 µM.
`COCc1cc(O)c(O)c(O)c1-c1c(COC)cc(O)c(O)c1O` was tested, and the Potency was active: 1 µM.
In the case of `O=C1CC(=O)N(c2ccccc2)N1c1ccccc1`, the Potency is reported as inconclusive: 39.8 µM [inhibitor, single point].
In the case of `Cc1cccc(CN2CCN(CC(=O)O)C2=O)c1`, the Potency is reported as inconclusive: 39.8 µM [inhibitor, single point].
`O=C(CCN1CCc2ccccc2C(c2ccccc2)C1)c1ccc2c(c1)OCCO2` (centres undefined) was tested, and the Potency was “inactive”.
`COc1ccc2ccccc2c1C1CC(=O)N2CN(C)CSC2=C1C#N` (centres undefined) was tested, and the Potency was “inactive”.
`Nc1ccc(C(=O)O)cc1S(=O)(=O)O` was tested, and the Potency was “inactive”.
In the case of `Cc1cccc(NC(=O)CN2C(=O)N/C(=C/c3ccc(C)s3)C2=O)c1`, the Potency is reported as “inactive”.
In the case of `O=c1c(-c2cccs2)nc2cncnc2n1Cc1ccccc1`, the Potency is reported as inconclusive: 25.1 µM [inhibitor, single point].
In the case of `CCCCC(=O)Oc1ccccc1C(=O)O`, the Potency is reported as inconclusive: 1 µM [inhibitor, single point].
In the case of `O=C(N/N=C/c1cccn1-c1cccc(C(=O)O)c1)Nc1ccccc1`, the Potency is reported as active: 25.1 µM.
In the case of `Nc1nc(SCC(=O)NCCO)nc2sc3c(c12)CCCC3`, the Potency is reported as inconclusive: 39.8 µM [inhibitor, single point].
With `COc1ccc(C2=Nn3c(nnc3-c3ccco3)SC2)cc1` the Potency was “inactive”.
`CCCCCn1c(C)c2c(OCC)cccc(=O)c2c1C` was tested, and the Potency was active: 31.6 µM.
In the case of `CCN(C(=O)CSc1nnc(-c2ccncc2)n1-c1ccccc1)C1CCS(=O)(=O)C1` (centres undefined), the Potency is reported as inconclusive: 10 µM [inhibitor, single point].
In the case of `CCCCC#Cc1ccc(C(=O)NNC(=O)Nc2ccccc2)o1`, the Potency is reported as active: 28.2 µM.
In the case of `COc1ccc(NC(=O)C2=C(C)C(=O)OC23CCC(C)CC3)cc1Cl` (centres undefined), the Potency is reported as inconclusive: 4.47 µM [inhibitor, partial curve].
For `CC(=O)N(C)C1=C(N2CCOCC2)C(=O)c2ccccc2C1=O`, the Potency was inconclusive: 22.4 µM [inhibitor, partial curve, poor fit].
With `CCCCNC(=O)COC(=O)c1c2c(nc3ccccc13)/C(=C/c1cccs1)CC2` the Potency was “inactive”.
In the case of `COc1cc(N=c2ssnc2Cl)cc(OC)c1`, the Potency is reported as “inactive”.
For `O=[N+]([O-])c1ccc(O)c(/C=N\N=C2c3ccccc3-c3ccccc32)c1`, the Potency was inconclusive: 1.12 µM [inhibitor, full curve].
`Cc1cccc(Nc2ccccc2C(=O)OCC(=O)NCc2ccco2)c1C` was tested, and the Potency was inconclusive: 3.98 µM [inhibitor, partial curve].
`COC(=O)C1=C(C(=O)OC)[C@@H]2N(C)c3ccccc3[C@@]23C[C@@H](C(=O)OC)N(S(=O)(=O)c2ccc(Br)cc2)C3=N1` was tested, and the Potency was inconclusive: 1.12 µM [inhibitor, full curve].
In the case of `O=C(OCCOc1ccc(Br)cc1)c1cnccn1`, the Potency is reported as inconclusive: 6.31 µM [inhibitor, single point].
In the case of `COc1cccc2c1C(=O)c1c(O)c3c(c(O)c1C2=O)C[C@](O)(C(C)=O)C[C@H]3O[C@@H]1C[C@H](N)[C@H](O)[C@H](C)O1`, the Potency is reported as active: 14.1 µM.
`CCOc1cc(/C=C2/SC(=S)N(CC3CCCO3)C2=O)ccc1O` (centres undefined) was tested, and the Potency was active: 14.1 µM.
In the case of `O=C(COC(=O)c1cc2c(s1)CCCC2)Nc1ccc(Cl)cn1`, the Potency is reported as “inactive”.
`Cc1ccc(CNC(=O)C2CCN(S(=O)(=O)c3cccs3)CC2)o1` was tested, and the Potency was inconclusive: 31.6 µM [inhibitor, single point].
`COCCn1c(=O)c(-c2ccc(Cl)cc2)nc2cnc(N3CCOCC3)nc21` was tested, and the Potency was “inactive”.
In the case of `O=C(O[C@@H]1Cc2c(O)cc(O)cc2OC1c1ccc(O)c(O)c1)c1cc(O)c(O)c(O)c1` (some centres undefined), the Potency is reported as active: 0.708 µM.
For `Nc1ccccc1OCP(=O)(c1ccccc1)c1ccccc1`, the Potency was inconclusive: 3.98 µM [inhibitor, full curve].
With `N#Cc1c(-c2ccco2)cc(-c2ccccc2)[nH]c1=O` the Potency was active: 22.4 µM.
With `CC(C)Cn1c(=S)[nH]c2cc(C(=O)O)ccc2c1=O` the Potency was “inactive”.
In the case of `CCN(CC)C(=O)c1ccc(/C=C/c2c[nH]c3ccccc23)[n+](C)c1`, the Potency is reported as inconclusive: 10 µM [inhibitor, partial curve].
For `COc1ccc(CCn2c(-c3ccco3)nc3nc4ccccc4nc32)cc1OC`, the Potency was inconclusive: 17.8 µM [inhibitor, partial curve].
